# This is one part of the list.
# Chains of the proteins cited; added tags and fusions are not shown.
# UniProt Q0JBA9, entry or part of it: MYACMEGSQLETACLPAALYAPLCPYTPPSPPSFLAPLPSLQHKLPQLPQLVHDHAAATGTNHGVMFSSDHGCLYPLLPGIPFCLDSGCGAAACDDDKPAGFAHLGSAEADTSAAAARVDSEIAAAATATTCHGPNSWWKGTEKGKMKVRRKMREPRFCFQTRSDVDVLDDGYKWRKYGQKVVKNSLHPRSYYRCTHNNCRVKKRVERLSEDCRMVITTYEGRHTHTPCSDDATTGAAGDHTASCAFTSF
# Target: OsWRKY34 (Oryza sativa, UniProt Q0JBA9 1-250)
# Test: protein-binding microarray (RPBM); PBS, 2% BSA, 51.3 ng/ul salmon testes DNA, 50 uM zinc acetate, 200 nM TF, 25 C, 1 h; high values mean tight binding
# Details: protein: recombinant; tags: N-terminal polyhistidine and DsRed monomer fusion (pET32a); label: CyDye5-dUTP incorporated in the synthesized complementary strand; 3' TTTTT single-stranded linker to array surface; dsDNA, one strand shown
# In short: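 Binding signal is defined as the fluorescence intensity of each feature in arbitrary units, read on an Axon 4000B scanner. Transcription factors with N-terminal polyhistidine and DsRed fusions came from E. coli BL21-CodonPlus and were purified on Ni–NTA. They were incubated at 200 nM for 1 h at 25 °C on a custom Agilent array that had been made double-stranded with Cy5-dUTP, with 50 µM zinc acetate present, and the array was washed.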
row,Sequence,binding signal
1,TGGACAAGTTGTGTGTGAGCTATTCTGCCTTTTATACTTCCGGAGTCACCTAGTGCAG,11900 fluorescence intensity (a.u.)
2,TCTCTCGACCGCTCGTCTCTCTCGACTGCTTCGTCGCTCCCGGAGTCACCTAGTGCAG,9060 fluorescence intensity (a.u.)
3,GATGTGAACCTGCAGTGCTATCCTTATCCTCTGTCCCAAACGGAGTCACCTAGTGCAG,9210 fluorescence intensity (a.u.)
4,GGTCGTTGTCATTGATTCTTATGCTTGTATTTGACTATTCCGGAGTCACCTAGTGCAG,12600 fluorescence intensity (a.u.)
5,CTCTCTCCCGCCAACGCCCAAGTCCCACCTATTAATCTCCCGGAGTCACCTAGTGCAG,8750 fluorescence intensity (a.u.)
6,GGATGCCACTTGAACGATAATTTTGACGATATTTTTGTAACGGAGTCACCTAGTGCAG,8050 fluorescence intensity (a.u.)
7,ATACTATTAATACCTGATCCCACCTGTCATACACACGTTACGGAGTCACCTAGTGCAG,9500 fluorescence intensity (a.u.)
8,AACCCACACGAGCTACCTATCCATCGTCCTAGCTATCTCACGGAGTCACCTAGTGCAG,11800 fluorescence intensity (a.u.)
9,CACACACTCGGACACACATCTCCAATCTTGAGCACACAGCCGGAGTCACCTAGTGCAG,9460 fluorescence intensity (a.u.)
10,AGCCTTCCAGCCGGACAGTTAGTTTCTTTTAGGTCGGTTCCGGAGTCACCTAGTGCAG,8070 fluorescence intensity (a.u.)
11,TCTCCATTTCTCACATGAGTCTCCTACATAGCGCTTAGCACGGAGTCACCTAGTGCAG,8540 fluorescence intensity (a.u.)
12,GCTTAGCTGATGAATCTTGACTTTGTTTGCATGTCCTTCCCGGAGTCACCTAGTGCAG,10800 fluorescence intensity (a.u.)
13,AGTTCTAATTAGTTTCAACTCGTACACGTAATTGCAATAACGGAGTCACCTAGTGCAG,8300 fluorescence intensity (a.u.)
14,CCAGTATAATCATTGACTTTTGTGTGCTTAATGCATTTTCCGGAGTCACCTAGTGCAG,11800 fluorescence intensity (a.u.)
15,CCGCCACCACCCCACTCCGACGACCACCTCCGCGCGCTCTCGGAGTCACCTAGTGCAG,11400 fluorescence intensity (a.u.)
16,TATCCCTCATCTCTGCGCGCCGCCGCCGCCGCCACCTCTCCGGAGTCACCTAGTGCAG,8270 fluorescence intensity (a.u.)
17,GCCGACCTCGCACGGGCCTCCGCCGCCTCGTCACCGGCCGCGGAGTCACCTAGTGCAG,9710 fluorescence intensity (a.u.)
18,CTCCAATCCGTTACTCGTTTATTCGTATCTCCTCCCAATTCGGAGTCACCTAGTGCAG,11800 fluorescence intensity (a.u.)
19,CTTCTTCGATTCCCACGTGGCACACCGACGGCGCGATCAACGGAGTCACCTAGTGCAG,8140 fluorescence intensity (a.u.)
20,CAAAGTCCGGAATATTGTCGTCTTCCACTTCATCTTCTTCCGGAGTCACCTAGTGCAG,12700 fluorescence intensity (a.u.)
21,AGCTTTAATTCAACGTCCTAATATTTAATCCGTTTGTTTACGGAGTCACCTAGTGCAG,8140 fluorescence intensity (a.u.)

# Two entries from above, with tabs.
row	Sequence	binding signal
11	TCTCCATTTCTCACATGAGTCTCCTACATAGCGCTTAGCACGGAGTCACCTAGTGCAG	8540 fluorescence intensity (a.u.)
12	GCTTAGCTGATGAATCTTGACTTTGTTTGCATGTCCTTCCCGGAGTCACCTAGTGCAG	10800 fluorescence intensity (a.u.)

# (list continues)

row,Sequence,binding signal
1,GCCTGTCACCATCACCTGACCCATATCCCTTCAACTTGCACGGAGTCACCTAGTGCAG,9610 fluorescence intensity (a.u.)
2,CACCACCAACGCGCTTCTTCTTCACCTCTCCAATCCCCTTCGGAGTCACCTAGTGCAG,10100 fluorescence intensity (a.u.)
3,ATTTCCTTTTGATTAAATTATAATTTAGTGGATGTTTTTACGGAGTCACCTAGTGCAG,8380 fluorescence intensity (a.u.)
4,ACAGCTTCTTCCCACGCCGCCGCCGCCGCCTAGCTTCTTCCGGAGTCACCTAGTGCAG,8880 fluorescence intensity (a.u.)
5,ACCATACTTAAGCTCCACTCCTTTTAGCATTGTCGGAGAACGGAGTCACCTAGTGCAG,8440 fluorescence intensity (a.u.)
6,TTACTTGGACTCAGTAAGTGGTATTATTATTTATGTTTCTCGGAGTCACCTAGTGCAG,11000 fluorescence intensity (a.u.)
7,TATGTTATTGTTCATGTTTGTCATGCTTTGACCTTGTTCGCGGAGTCACCTAGTGCAG,8980 fluorescence intensity (a.u.)
8,GAAGACGACATTGCAGTTGTAGTTGGGACCCGCCACACCCCGGAGTCACCTAGTGCAG,8030 fluorescence intensity (a.u.)
9,TCTGTGGGTTGAGGGAGGTGATTCAATTAGGAGCAAGAAACGGAGTCACCTAGTGCAG,8940 fluorescence intensity (a.u.)
10,AGCTGTGTTAGGGTGTGTTTGGTTGGTGGGATATACCTGGCGGAGTCACCTAGTGCAG,8580 fluorescence intensity (a.u.)
11,TTTTTACACTGCCACGTCACTACCCACCCGACACTTAATTCGGAGTCACCTAGTGCAG,12800 fluorescence intensity (a.u.)
12,CCGGCGACCCGCACCCACCATGGGCTCTTCGCGCGCGCCACGGAGTCACCTAGTGCAG,8160 fluorescence intensity (a.u.)
13,TCTACTTGGCACCACCACATCGATGCGAGCTAACTAAACACGGAGTCACCTAGTGCAG,9330 fluorescence intensity (a.u.)
14,GTCCTTTTACTACACTGCATTGCATTTGCACTGTCATTTCCGGAGTCACCTAGTGCAG,8320 fluorescence intensity (a.u.)
15,CTATTCTCCTTTTTATTTTTTAATATGCCTTCATGTCCGTCGGAGTCACCTAGTGCAG,8530 fluorescence intensity (a.u.)
16,ATGTATATTTGCTTTAGTTTGTATCATCTTATACTAATATCGGAGTCACCTAGTGCAG,8610 fluorescence intensity (a.u.)
17,CTGTGCTTTGTTGGGTTTGTCTGCGATGCCGATTCAATTACGGAGTCACCTAGTGCAG,8840 fluorescence intensity (a.u.)
18,TTATTCCTTTCCAATTTATTCTCCATTGTCTCCTTAGTTTCGGAGTCACCTAGTGCAG,9340 fluorescence intensity (a.u.)
19,TGCACAGTTCCACCAGACTCCATCGCCATCGCCATCGCCACGGAGTCACCTAGTGCAG,8480 fluorescence intensity (a.u.)
20,GGGCTATATGTTGCTAGCATTGCAAGCGCACTTGCCTTCACGGAGTCACCTAGTGCAG,8970 fluorescence intensity (a.u.)
21,CTCCTAATATGATACATAACGCTGAACTACATACACTTATCGGAGTCACCTAGTGCAG,8220 fluorescence intensity (a.u.)

# Source: publication PMC7819943, “Rice protein-binding microarrays: a tool to detect cis-acting elements near promoter regions in rice”
